Data source: PubChem BioAssay AID1159584 (Peter MacCallum Cancer Centre, 2016)
Shown is one part, drawn at random, of about 18,000 reagents. Reagent sequences are not shown. The record does not give: the amount of reagent, the time to read-out.

- Test: 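Genes that CDH1-null MCF10A cells selectively depend on to survive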 (primary screen)
- System: human MCF10A breast epithelial cells, parental and CDH1-null
- Reagents: siRNA against human genes
- Detection: 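ATP luminescence (CellTiter-Glo) viability per line relative to mean mock wells over all plates, and the ratio of CDH1-null to parental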
- Direction: CDH1-null / parental viability ratio: higher = CDH1-null cells survive relatively better than parental; CDH1-null viability vs mock: higher = more viable CDH1-null cells; parental viability vs mock: higher = more viable parental cells

gene knocked down | CDH1-null / parental viability ratio | CDH1-null viability vs mock (fraction of mock) | parental viability vs mock (fraction of mock)
TBC1D2B (TBC1 domain family member 2B) | 0.96 | 0.67 | 0.7
SERPINB7 (serpin family B member 7) | 1.02 | 1.04 | 1.02
TGFB1 (transforming growth factor beta 1) | 0.74 | 0.62 | 0.84
TMOD1 (tropomodulin 1) | 0.79 | 0.54 | 0.68
PTPN6 (protein tyrosine phosphatase non-receptor type 6) | 1.51 | 0.8 | 0.53
FAM117B (family with sequence similarity 117 member B) | 0.77 | 0.46 | 0.6
RBL2 (RB transcriptional corepressor like 2) | 0.88 | 0.9 | 1.02
OXGR1 (oxoglutarate receptor 1) | 0.69 | 0.62 | 0.9
NCOA5 (nuclear receptor coactivator 5) | 0.94 | 0.85 | 0.9
PIF1 (PIF1 5'-to-3' DNA helicase) | 1.13 | 0.6 | 0.53
GALNT16 (polypeptide N-acetylgalactosaminyltransferase 16) | 1.07 | 0.9 | 0.84
KCNC4 (potassium voltage-gated channel subfamily C member 4) | 1.08 | 0.82 | 0.76
RAF1 (Raf-1 proto-oncogene, serine/threonine kinase) | 1.09 | 0.96 | 0.88
NGB (neuroglobin) | 0.68 | 0.45 | 0.66
C4orf50 (chromosome 4 open reading frame 50) | 0.9 | 0.36 | 0.4
BCAT2 (branched chain amino acid transaminase 2) | 0.76 | 0.56 | 0.74
KRTAP12-2 (keratin associated protein 12-2) | 1.04 | 1 | 0.96
ENTPD2 (ectonucleoside triphosphate diphosphohydrolase 2) | 1.11 | 0.5 | 0.45
SUGP2 (SURP and G-patch domain containing 2) | 1.23 | 0.79 | 0.64
TANC1 | 0.85 | 0.76 | 0.89
CCNT1 (cyclin T1) | 0.94 | 0.75 | 0.8
PSG4 (pregnancy specific beta-1-glycoprotein 4) | 0.96 | 0.65 | 0.68
PRR20A (proline rich 20A) | 1.09 | 0.94 | 0.86
COL6A5 (collagen type VI alpha 5 chain) | 0.81 | 0.58 | 0.72
TPRG1L (tumor protein p63 regulated 1 like) | 1.04 | 0.56 | 0.54
ASB4 (ankyrin repeat and SOCS box containing 4) | 1.03 | 0.8 | 0.78
ANKRD16 (ankyrin repeat domain 16) | 0.78 | 0.4 | 0.51
GCSAM (germinal center associated signaling and motility) | 1.13 | 1.23 | 1.09
HERC3 (HECT and RLD domain containing E3 ubiquitin protein ligase 3) | 1.21 | 0.8 | 0.66
C1orf94 (chromosome 1 open reading frame 94) | 1.05 | 0.92 | 0.88
CX3CR1 (C-X3-C motif chemokine receptor 1) | 0.62 | 0.55 | 0.88
PRH1 (proline rich protein HaeIII subfamily 1) | 0.9 | 0.66 | 0.73
ZNF607 (zinc finger protein 607) | 0.92 | 0.72 | 0.78
NOMO3 (NODAL modulator 3) | 1.35 | 1.35 | 1
FCAMR (Fc alpha and mu receptor) | 1.2 | 1.1 | 0.92
ELL2 (elongation factor for RNA polymerase II 2) | 0.95 | 0.82 | 0.86
RAB24 (RAB24, member RAS oncogene family) | 1.2 | 1.04 | 0.87
BPIFB3 (BPI fold containing family B member 3) | 0.96 | 0.77 | 0.8
SGK1 (serum/glucocorticoid regulated kinase 1) | 1.11 | 1.2 | 1.08
CCDC87 (coiled-coil domain containing 87) | 1.04 | 0.79 | 0.76
SELENOO (selenoprotein O) | 1.07 | 0.86 | 0.8
CHAF1A (chromatin assembly factor 1 subunit A) | 0.95 | 0.4 | 0.42
ARHGAP5 (Rho GTPase activating protein 5) | 1.11 | 0.91 | 0.82
RALGPS1 (Ral GEF with PH domain and SH3 binding motif 1) | 1.16 | 1.04 | 0.9
ZNF467 (zinc finger protein 467) | 1.22 | 0.44 | 0.36
PYGO1 (pygopus family PHD finger 1) | 1.15 | 0.62 | 0.54
ZC3H7B (zinc finger CCCH-type containing 7B) | 0.8 | 0.7 | 0.88
LRP2BP (LRP2 binding protein) | 1.58 | 0.6 | 0.38
FHL5 (four and a half LIM domains 5) | 1.05 | 0.88 | 0.84
FGF16 (fibroblast growth factor 16) | 0.96 | 0.96 | 1
SPATA4 (spermatogenesis associated 4) | 0.77 | 0.76 | 0.99
RYR1 (ryanodine receptor 1) | 1.27 | 1.02 | 0.8
LHX2 (LIM homeobox 2) | 0.7 | 0.6 | 0.86
RPL21P44 (ribosomal protein L21 pseudogene 44) | 1.12 | 0.72 | 0.64
LBR (lamin B receptor) | 0.8 | 0.74 | 0.92
NPTN (neuroplastin) | 1.05 | 1.11 | 1.06
CBR1 (carbonyl reductase 1) | 0.97 | 0.7 | 0.72
CDH23 (cadherin related 23) | 1.41 | 0.58 | 0.41
LIPK (lipase family member K) | 0.93 | 0.91 | 0.98
AKR1C2 (aldo-keto reductase family 1 member C2) | 0.91 | 0.69 | 0.76
PAQR3 (progestin and adipoQ receptor family member 3) | 0.83 | 0.85 | 1.02
SYBU (syntabulin) | 1.68 | 1.06 | 0.63
PYGB (glycogen phosphorylase B) | 1.12 | 0.9 | 0.8
CT45A6 (cancer/testis antigen family 45 member A6) | 0.59 | 0.46 | 0.78
NALCN (sodium leak channel, non-selective) | 1.29 | 1.19 | 0.92
KCNF1 | 1.21 | 0.98 | 0.81
H2BC7 (H2B clustered histone 7) | 1.16 | 1.06 | 0.91
ZAR1 (zygote arrest 1) | 1.11 | 1.14 | 1.03
